Article PMC7366913
No constants are given. Whether binding was seen depends on the method and setting.

How the values were obtained:
[1] = target: OCP-3FH variant of Orange Carotenoid Protein from Synechocystis sp. PCC 6803 (W41F, W101F, W110F, W277H) (Synechocystis sp. PCC 6803) (UniProt P74102); assay: SEC; analytical size-exclusion spectrochromatography (SESC), Superdex 200 Increase 5/150, 20 mM Tris-HCl pH 7.6, 150 mM NaCl, 0.45 ml/min; individual protein at about 50 µM, dark-adapted; apparent Mw from column calibration; both purified
[2] = target: T1, wild-type Orange Carotenoid Protein from Synechocystis sp. PCC 6803 (Synechocystis sp. PCC 6803), P74102; assay: as above; conditions: remark: other sources report otherwise
T1 chain: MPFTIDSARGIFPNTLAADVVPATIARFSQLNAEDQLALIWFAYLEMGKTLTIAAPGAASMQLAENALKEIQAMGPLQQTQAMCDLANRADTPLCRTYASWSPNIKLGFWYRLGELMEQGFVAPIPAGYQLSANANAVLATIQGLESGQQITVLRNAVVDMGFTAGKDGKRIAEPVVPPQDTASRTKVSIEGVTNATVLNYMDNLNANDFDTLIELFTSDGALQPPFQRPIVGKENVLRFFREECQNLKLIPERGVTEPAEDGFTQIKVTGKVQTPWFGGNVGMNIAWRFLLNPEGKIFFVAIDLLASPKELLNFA

Row | Binder | binding [1] | binding [2]
1 | OCP-3FH variant of Orange Carotenoid Protein from Synechocystis sp. PCC 6803 (W41F, W101F, W110F, W277H) (protein, UniProt P74102 1-316) MPFTIDSARGIFPNTLAADVVPATIARFSQLNAEDQLALIFFAYLEMGKTLTIAAPGAASMQLAENALKEIQAMGPLQQTQAMCDLANRADTPLCRTYASFSPNIKLGFFYRLGELMEQGFVAPIPAGYQLSANANAVLATIQGLESGQQITVLRNAVVDMGFTAGKDGKRIAEPVVPPQDTASRTKVSIEGVTNATVLNYMDNLNANDFDTLIELFTSDGALQPPFQRPIVGKENVLRFFREECQNLKLIPERGVTEPAEDGFTQIKVTGKVQTPHFGGNVGMNIAWRFLLNPEGKIFFVAIDLLASPKELLNFA | no binding (tested: about 50 µM) | 
2 | wild-type Orange Carotenoid Protein from Synechocystis sp. PCC 6803, P74102 1-316 (protein) MPFTIDSARGIFPNTLAADVVPATIARFSQLNAEDQLALIWFAYLEMGKTLTIAAPGAASMQLAENALKEIQAMGPLQQTQAMCDLANRADTPLCRTYASWSPNIKLGFWYRLGELMEQGFVAPIPAGYQLSANANAVLATIQGLESGQQITVLRNAVVDMGFTAGKDGKRIAEPVVPPQDTASRTKVSIEGVTNATVLNYMDNLNANDFDTLIELFTSDGALQPPFQRPIVGKENVLRFFREECQNLKLIPERGVTEPAEDGFTQIKVTGKVQTPWFGGNVGMNIAWRFLLNPEGKIFFVAIDLLASPKELLNFA |  | no binding (tested: about 50 µM)
